For this test, the target named is T1, Flag-tagged A. thaliana CenH3 (A. thaliana) (UniProt Q8RVQ9).
T1 sequence: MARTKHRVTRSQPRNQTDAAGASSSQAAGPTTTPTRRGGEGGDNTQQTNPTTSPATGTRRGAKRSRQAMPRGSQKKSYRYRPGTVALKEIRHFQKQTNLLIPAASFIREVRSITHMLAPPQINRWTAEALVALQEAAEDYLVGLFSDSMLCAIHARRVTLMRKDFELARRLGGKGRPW
The test can be described thus: co-IP; Flag-tagged bait from the detergent-solubilized membrane fraction of yeast held on a Flag-affinity column; eluted proteins read by western blot (anti-His or anti-Myc). For orientation: Immunoblotting shows a protein as a band on a membrane.

These are yes or no findings as the source states them, for the method shown. Binding seen in cells or lysates may run through a third protein. A result given as binding can be weak or reduced; the word gives no strength. Tags and fused reporters may be left off the sequences shown.

Turning to “His6-tagged TBSV p33 replication protein (tomato bushy stunt virus (TBSV))”, the binding result is “binds”.

Source of the values: paper PMC9275711.
